This note sets out measurements from PubChem BioAssay AID1347423 (Functional Genomics Laboratory (NCATS/FGL), 2020).

In all, about 52,000 sequences went through this assay and about 210 (0.4%) were called active.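 How the source made its calls: active means gene whose silencing raises cell survival under the drug, median off-target-corrected z-score across its silencing RNAs 2 or more; inactive means the rest.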 The list shows a part of the results.

The nature of the experiment: Resistance to Poly (ADP-Ribose) Polymerase inhibitor: Gene Identification via Genome-wide siRNA Screen. The note with it: mouse BRCA2 R2336H ES cells, olaparib, CellTiter-Glo viability; stronger effect = higher value. Summed up:
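Genome-wide siRNA screen (3 siRNAs/gene, 20 nM) in mouse ES cells carrying hypomorphic BRCA2 R2336H; olaparib 500 nM added 48 h post-transfection, CellTiter-Glo viability 72 h later. Normalized to plate-median negative control; MAD z-scores, gene median, seed-adjusted.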
(In general: Cellular ATP, detected with luciferase, serves as a proxy for viable cell number.)
Turning to “GGCACCCUUGAACUCUACUTT against 4930404N11Rik”, the z-score was inactive: -1.77. For CCUCUGAGAAGGAGAUACATT against Hadh2, the z-score is inactive: 0.935. For GGAUCACCAUUGCUUGACUTT against Galt, the z-score was inactive: 1.45. Next, “GCAGUCAAAACCUAAAAGUTT against B230315F11Rik”: inactive: 1.66; CGAACUUCUUUAUCAGAACTT against Mrgpra4: inactive: -0.0736; GGCAGAAAACAAGAUAAAGTT against Wbscr1: inactive: -0.0664. Regarding GCCACUUGGAAGAUCUAUGTT against Kcnq1, the z-score is inactive: -0.111. GCAUAUGUCUGUGGAAUGUTT against Olfr1505: the z-score is inactive: 0.516.

In the case of “CCAGCAACCUGAAAUACCUTT against F830104D24Rik”, the z-score was inactive: -1.31. For GGACUCAGCAAAGAAAGAGTT against Eea1 the value was inactive: -1.52. For CCGUGUUAGAGUUUUCGACTT against Top3b the value was inactive: -0.103. Next, CGACUUUCUUGUGGAGUGGTT against Nanos1: inactive: 0.693; GCUGUACAAAACAUAAGAATT against Bcl6: inactive: 0.461; “GGCUUUUAGAUUCAACGGCTT against B230369L08Rik”: inactive: 0.722. With GGUCCAGGUCUGAAUCUAGTT against Sfrs10, the z-score was inactive: -2.42. Next, “GGUGUGGAUGAGCAAGUACTT against 1200009C21Rik”: inactive: -2.68. For the sequence CCUUAAUUGGGUUGAAUUCTT against Olfr878, the z-score is inactive: 1.36.

Regarding GGAACAGGAAGAAAGAAAATT against Ube2e3, the z-score was inactive: -0.0957. Consider GGCUAGUCACCUUUGUAGCTT against Mmrn2, for which the z-score was inactive: -0.147. Take GCUCUCACACAUGUUUGUUTT against LOC219026: the z-score was inactive: 0.935. Next, “GGUUGUGUUUUCAAGAAUUTT against 4921507P07Rik”: inactive: -0.00599; GGGUGGACUCAGUGCUUCUTT against Hoxd3: inactive: 2.02. Turning to “GGUUCUAUACAAUCCUGAATT against 2610206B13Rik”, the z-score is inactive: 0.223. For “GGACUUAGUACCUGAUAACTT against 2700060E02Rik” the value was inactive: -0.963; for “GGCAAAAGCAUUGUCUCUGTT against 4930438O05Rik”, inactive: -0.7; for “CGAGCGGAUGCUGGUAUUUTT against 3000004C01Rik”, inactive: -1.19.

For the sequence CGUGCUGUUGUGUAAUUUCTT against Wdr37, the z-score is inactive: 0.16.

With GGAAUGUCGAAGAAAAUGCTT against Adam15, the z-score is inactive: -0.742. On to CCGAAAGAGGUGAUUGUUATT against Crk7, for which the z-score is inactive: -0.874. For CGUGAUUCUAGUAAGAGAGTT against Mbd1 the value was inactive: -1.37.

On to GGAGCUGAUCCUUAACUUATT against Adam1b, for which the z-score is inactive: -0.162.

For the sequence CCGAUGAUGAGAUUAAUAUTT against Ophn1, the z-score is inactive: -0.413. For GCGAUUGAGCAGUGAAUAATT against AU021034 the value was inactive: -2.03; for GGCAGCAAAAAGGUGACGCTT against Cdk5r2, inactive: -1.11; for “GGUGACAUUACAUUUCAUATT against 2610528A17Rik”, inactive: -0.909. Take GCCGUUAAACAGUUCUCCCTT against BC065078: the z-score is inactive: 0.803. With GGUUGUCACCCUGACGGAATT against Cox4i2, the z-score was inactive: 1.27. Next, “GCUUUAUCAUGAGCUCCACTT against 9330199A09Rik”: inactive: -0.0905; “ACAUGGGAGUAUUUGAUCCTT against D530030D03Rik”: inactive: -0.172.

In the case of GGCCAUUAACAUCACCAACTT against Csnk2a2, the z-score is inactive: 0.567. For GGGUCAUGUUAACUCUAAATT against Og2x the value was inactive: 0.17.

In the case of “CCAUAUAAGGCACAGUUUGTT against 1200007D18Rik”, the z-score is inactive: -0.0905. For “GGACUCAAGACACCAGUUGTT against D5Bwg0860e” the value was inactive: -2.67; for GGGCAGUUUUACAAAUGUUTT against Fbxw8, inactive: -1.31. As for GGUUUCAAGUGAUGAAUAGTT against Ntf5, the z-score is inactive: 0.176. Next, GCCACAUAAGGUUGUUCCCTT against Gamt: inactive: -0.12; GGUGUUUUCCAACAUCCUCTT against Ccrl2: inactive: 0.253. With CCCAGUGAAGCAUUUUUUATT against Rpp30, the z-score is inactive: 1.27.

As to GGAGUUGUAGAGAAUUUAGTT against Zfp85-rs1, the z-score is inactive: 1.31.

Turning to GCUUUAAUUCACCAUUAGGTT against Pax9, the z-score was inactive: -0.451. GUGCAGCUAUGAGCUGUUCTT against Sepx1: the z-score was inactive: 0.966. For GGCAUUACAUUUCAAUGAATT against Serpinb12 the value was inactive: 0.557; for “GGGAAUCGGUGGAUUUGGATT against 1110057H19Rik”, inactive: -0.199; for GGACACUAUGACGGAAGUATT against Apoe, inactive: 2.46.

As for GGGAAAAUGCCUAUCGAUUTT against Meis1, the z-score was inactive: 0.777.

As for CCUUCCCUUAAAUGGAACCTT against Slc9a1, the z-score is inactive: 1.6. Next, “GGAUGGGCCAUAUUGUCCUTT against 1110008J03Rik”: inactive: 0.755; AUAAAGAUGUCAGUGAUGCTT against Olfr951: inactive: -0.891. Consider GGUCACUGUUUCCCUAGACTT against Prss33, for which the z-score is active: -0.494. Next, GCACUGUGAGUGGAUACUUTT against Slc5a3: inactive: -2.02. For GGGCAACUUUGAUUAAUCATT against Hsd3b7 the value was inactive: -1.23; for GGCAAGAUCACCUUCUGCATT against Psmd4, inactive: -3.03; for GAUGCACUUCGAAUCAGGGTT against Uchl3, inactive: 3.06. For “GCUAGAGAAAUGGAAUUUATT against 4632411B12Rik” the value was inactive: 0.259; for GCUUUUACGGGAGAAAACUTT against Xbp1, inactive: -2.65. For the sequence CCAGAUUUGAGCGAAACCUTT against Myo15, the z-score is inactive: 0.984. With “GGUCUUGAUUAUAAGCCCATT against 9430063L05Rik”, the z-score was inactive: 0.984. Next, “GCACAGCUUUUUGGAUCUGTT against A630028O16Rik”: inactive: -0.987. For GGAAGGCUCAGAGAAAUAATT against Ssr4 the value was inactive: -0.122; for “GGAGAAGCUGCUGGCAGAATT against 2610009I02Rik”, inactive: 1.46; for “GGCUCAUUGUAGCAAAUUATT against 2610034K17Rik”, inactive: -1.27. For GCUGUAAUGACCAGUGUUUTT against Gpam, the z-score is inactive: 0.124. Next, GGCCAAACUGGAUUACUUATT against Tmprss11c: inactive: -0.141. For GGCCUGAAUGACACCUUUATT against Anp32e the value was inactive: -0.803; for GCCACCCUUCUGGAGAUUCTT against MGC107702, inactive: -0.916. Next, “GGAGCUGUACUCCAAGAAGTT against 1810007P19Rik”: inactive: -2.08; “CGAACCAUAGCUAGCUCCATT against 4931406O17Rik”: inactive: -0.172; GGUUGCUACUUUUGGCAGGTT against Dusp7: inactive: 1.12.

For “CCUAUCUUGUCCGGUUUACTT against 2810410C14Rik”, the z-score was inactive: -0.969.

As to GGACUAUUUGGAAACCUCCTT against Olfr1366, the z-score is inactive: 0.851.

With GGUUGAGAAGAAGAAUGGATT against Thap4, the z-score was inactive: -3.01. Next, GGAAAAUACACAGAGAUAUTT against Stk3: inactive: 1.4. GGAAAUUGUUGUUUCCCGUTT against Sf3b3: the z-score was inactive: -3.12. Next, “GUUCUCAAGUAUCCCAGGCTT against 1110006O24Rik”: inactive: -0.262; GCGAACCCAUCAGUGAAGUTT against Dpp10: inactive: 0.566; “CCUGAAUUGUUCCUUCCAUTT against G630024C07Rik”: inactive: -1.99.

Consider GCAAGUAGUUAGCUCAGGGTT against Gabpb1, for which the z-score is inactive: -1.79. Next, GCUGGAUCAGCUAGCAAAATT against Cpa1: inactive: 2.56; GCCAGCUAAAAUAGAAAAATT against Vldlr: inactive: -0.161; GCAUUAAGGCACAAACAAATT against Myo1b: inactive: 0.993.

With CGCCUUGCUAGUUUAAUGATT against Matr3, the z-score was inactive: 0.451. Take GGAUAACCGUAUUAAUUUCTT against Gm2a: the z-score is inactive: -0.188. For CGAAACCUCUAAGAAGAUATT against Pole the value was inactive: 0.211. Regarding GGUAAUUUCUUACCAAGGATT against Gabpa, the z-score was inactive: -2.68. Next, GGAAAUCAUAUAUGCAAAGTT against Dpp4: inactive: 0.914.

Regarding UGACACCUUCUCAUUGGCCTT against Tceb3bp1, the z-score is inactive: -0.434. For GGAUGUUGUUUGGGCUUUUTT against Olfr140 the value was inactive: -0.198. For “GGCACAAUGGACUCAGUCATT against 2410129E14Rik” the value was inactive: -0.494; for GCUCUAAGGAACAUGUAAATT against Recql, inactive: -0.919. For “GGAGAUUUUGAUGAGCAGATT against D930035B09Rik” the value was inactive: 0.894. On to GGAAAAUUUAUGCAGUGGATT against Carm1, for which the z-score was inactive: -1.36.

As for GCAUCUACCACACAAUGGCTT against Wdfy1, the z-score is inactive: -1.98. Take GGUCUUUUUUCCUUUGUUCTT against Ogg1: the z-score is inactive: -0.474.
